This test deals with latent myostatin (latent GDF8), species not stated in the experiment (UniProt O14793). Nature of the test: Octet, compared with parental Ab1.

Protein sequences, listed by entry. Tags and fused reporters are not part of them. Lines headed by an entry give the natural chain unless they say otherwise; changes in a name come on top.
UniProt O14793: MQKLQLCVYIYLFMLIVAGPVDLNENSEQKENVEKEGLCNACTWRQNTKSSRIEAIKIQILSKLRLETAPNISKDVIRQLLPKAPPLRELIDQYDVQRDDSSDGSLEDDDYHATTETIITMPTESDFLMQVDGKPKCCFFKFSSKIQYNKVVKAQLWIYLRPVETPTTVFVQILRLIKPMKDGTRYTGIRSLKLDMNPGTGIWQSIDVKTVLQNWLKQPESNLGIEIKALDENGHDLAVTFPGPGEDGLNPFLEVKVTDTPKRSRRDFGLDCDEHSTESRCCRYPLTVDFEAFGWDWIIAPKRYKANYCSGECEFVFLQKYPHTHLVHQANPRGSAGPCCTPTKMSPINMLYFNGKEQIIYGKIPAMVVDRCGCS

Positions count from the first letter of the chain named. Numbers in names are those of the source. These are yes or no findings as the source states them, for the method shown. Binding calls can cover weak binding; strength is not graded here.

B1: Ab3 (affinity optimized, parental frameworks), IgG4 (S228P) (antibody, V domains shown)
VH: QIQLVQSGGGVVQPGRSLRLSCAASGFAFSSYGMHWVRQAPGKGLEWVAVISYDGSIKYYADSVKGRFTISRDNSKNTLYLQMNSLRAEDTAVYYCARDLLVRFLEWSHKYGMDVWGQGTTVTVSS
VL: QPVLTQPPSASGTPGQRVTISCSGSTSNIGSNTVHWYQQLPGTAPKLLIYSDDQRPSGVPDRFSGSKSGTSASLVISGLQSDDEADYYCAAWDESLNGVFGGGTKLTVL
B1: the binding entry is reported as “binds”.

B2: Ab5 (affinity optimized, parental frameworks), IgG4 (S228P) (antibody, V domains shown)
VH: B1 VH with S56N, I57N
VL: B1 VL with T26S, S31G
As for B2, the binding result is given as “binds”.

These data come from patent publication US20260242455A1.
